From PubChem BioAssay AID2685 (National Center for Advancing Translational Sciences (NCATS), 2010)
The other results are listed elsewhere or left out. Further columns of the screen follow, without active or inactive calls. Most of these compounds were active or inconclusive in the main read-out, so they are no random draw. The note in brackets gives the kind of curve behind each potency; many fits are weak.

Experiment: qHTS Assay for Lipid Storage Modulators in Drosophila S3 Cells;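 for cell number change: cells counted by Cell Tracker Red CMTPX staining in the red channel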
Conditions: BODIPY lipid droplet fluorescence, 18-24 h; for cell number change: measured here: cell count max response, cells fed with added oleic acid
Outline: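 Drosophila S3 cells got compounds at several concentrations plus oleic acid (400 uM solution). Laser-scanning cytometry with 488 nm excitation read lipid droplets at 500-530 nm and cells at 575-640 nm. Percent activity was relative to 20 uM Triacsin C.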

[1] = measured here: lipid fluorescence (Fed channel) AC50, cells fed with added oleic acid
[2] = measured here: cell number channel AC50, cells fed with added oleic acid

| SMILES | cell number change | AC50 [1] | AC50 [2] |
| --- | --- | --- | --- |
| CC(C)C1=NOC(C(=O)N2CCC(N3CCC(C(=O)N4CCOCC4)CC3)CC2)C1 (centres undefined) | 5.49% | 7.31 µM [falling, partial curve] | – |
| O=C(O)CCc1ccc(-c2cccs2)n1Cc1ccco1 | 9.19% | 0.731 µM [falling, full curve, poor fit] | – |
| N[C@@H](Cc1ccccc1)c1nnc(SCc2ccccc2Cl)o1 | – | 2.06 µM [rising, full curve] | 2.91 µM [rising, partial curve] |
| COc1ccc(-c2cc(N)n(S(=O)(=O)c3ccc(F)cc3)n2)cc1OC | – | 2.31 µM [rising, partial curve, poor fit] | 1.64 µM [rising, partial curve] |
| CCCCCCCNC(=O)C1(CC2CC(c3cccc(Br)c3)=NO2)CCN(C(=O)c2ccccc2)CC1 (centres undefined) | -42.6% | 16.4 µM [falling, partial curve, poor fit] | 8.2 µM [falling, partial curve] |
| CCN1CCN(c2cc(C(C)(C)C)nc3c(-c4ccccc4)c(C)nn23)CC1 | 29.9% | 4.11 µM [rising, single point] | – |
| COC(=O)CC1C(=O)NCCN1C(=O)CSc1nnc(Nc2ccc(C)cc2)s1 (centres undefined) | 3.33% | – | – |
| CCCCCCSC1=C(C#N)C(c2ccc(C)o2)CC(=O)N1 (centres undefined) | -22.4% | – | – |
| O=P(CCCO)(Cc1ccccc1)Cc1ccccc1 | 1.21% | 2.91 µM [falling, partial curve, poor fit] | – |
| O=c1cc(-c2ccccc2)oc2ccccc12 | 29.9% | 29.1 µM [rising, single point] | – |
| O=C(CN1CCN(S(=O)(=O)c2ccc(Br)cc2)CC1)Nc1ccccc1C(=O)c1ccccc1 | 9.26% | – | – |
| CCc1cccc(NC(=O)Cn2c(=O)n(CCC(=O)NCC3CCCO3)c(=O)c3cc(OC)c(OC)cc32)c1 (centres undefined) | -11.4% | 6.51 µM [rising, single point] | – |
| NC(=O)c1ccccc1NC(=O)c1ccc2ccccc2c1 | -29.9% | 29.1 µM [falling, single point] | – |
| Cc1ccc(S(=O)(=O)NC2CC2)cc1 | -6.32% | 0.651 µM [falling, full curve] | – |
| COc1cccc(OCCOCCOc2ccc(C)cc2[N+](=O)[O-])c1 | -17% | 14.6 µM [falling, partial curve] | – |
| Nc1ccccc1C(=O)N1CCc2ccccc21 | 4.5% | – | – |
| CSc1nc(-c2ccc(Cl)cc2)c(C#N)c(=O)n1C | -48.7% | 29.1 µM [falling, single point] | 29.1 µM [falling, single point] |
| CCOc1ccc(CCNS(=O)(=O)c2ccc3c(c2)oc(=O)n3C)cc1OCC | 2.66% | 29.1 µM [rising, single point] | – |
| Cn1c(/N=C/c2cc(Cl)ccc2O)nc2ccccc21 | 30.4% | 0.58 µM [rising, single point] | 32.6 µM [rising, single point] |
| Cc1nnnn1-c1cccc(C(=O)O)c1 | -39.6% | – | 3.66 µM [falling, full curve] |

| SMILES | cell number change | AC50 [1] | AC50 [2] |
| --- | --- | --- | --- |
| CCOc1cc2c(cc1OCC)C(c1ccccc1OC)OC(=O)C2 (centres undefined) | 30.2% | 0.92 µM [falling, partial curve, poor fit] | 6.51 µM [rising, partial curve] |
| COc1cccc(/C=C2\SC(=O)N(CCC(=O)NNC(=O)c3cccc(Cl)c3)C2=O)c1 | -35.4% | 10.3 µM [falling, partial curve, poor fit] | 8.2 µM [falling, partial curve, poor fit] |
| C/C=C\C(=O)Nc1cccc(C2=NOC3(C2)C[C@@H](C(N)=O)N(C(=O)c2ccc(OC)cc2)C3)c1 (some centres undefined) | -0.0629% | 6.51 µM [falling, single point] | – |
| CCNC(=S)NCc1ccc(OC)c(OC)c1 | -7.38% | 6.51 µM [rising, single point] | – |
| CCCN(CC(=O)Nc1ccccc1OC)C(=O)CN1C(=O)NC2(CCCCC2)C1=O | 15.4% | – | – |
| O=C(CSc1nnc(COc2ccc(Cl)cc2)o1)N1CCOCC1 | -25.8% | 0.82 µM [falling, full curve] | 1.64 µM [falling, single point] |
| Cc1c(C(=O)Nc2ccc(F)cc2)oc2ccc(S(=O)(=O)N3CCC4(CC3)OCCO4)cc12 | -4.42% | 0.164 µM [falling, full curve] | 0.00411 µM [falling, full curve, poor fit] |
| CCCCN(CCCNC(=O)CN1C(=O)COc2ccccc21)c1ccccc1 | 101% | – | 9.2 µM [rising, partial curve] |
| COc1ccccc1-c1cc2nc(C)cc(C)n2n1 | -38.8% | 2.91 µM [rising, single point] | 29.1 µM [falling, single point] |
| COc1ccc([C@H]2CC(=O)C=C(c3cc4ccccc4c4ccccc34)C2)cc1 | -16.3% | 25.9 µM [falling, partial curve, poor fit] | – |
| CC(C)CNc1nc2c(c(=O)n(C)c(=O)n2C)n1Cc1cccc(Br)c1 | – | 2.59 µM [rising, partial curve] | 2.31 µM [rising, partial curve] |
| COc1ccc(NS(=O)(=O)c2cccc(C(=O)NCC(c3ccc(OC)cc3)N3CCCC3)c2)cc1 (centres undefined) | -19% | – | – |
| CCc1cc(=O)oc2c(C)c(OCC(=O)NCC3CCC(C(=O)O)CC3)ccc12 (centres undefined) | 25.9% | – | – |
| COc1ccc(Nc2nccc3c2nnn3C)cc1 | 1.47% | 29.1 µM [rising, single point] | – |
| O=C(CNC(=O)N1CC(=O)Nc2ccccc21)Nc1cccc(F)c1 | -9.16% | 20.6 µM [rising, single point] | – |
| COCCNC(=O)CSCc1cc(C)cc(C)c1 | – | 0.731 µM [falling, single point] | – |
| Cc1cccc(C(=O)OCC(=O)N(CC(C)C)c2c(N)n(Cc3ccccc3)c(=O)[nH]c2=O)c1C | – | 3.66 µM [falling, single point] | 3.26 µM [falling, partial curve, poor fit] |
| Cc1ccc(C(=O)OCC(=O)NC(=O)c2ccccc2)o1 | 17.3% | 32.6 µM [falling, single point] | – |
| CCN(CC)CCCN1C(=O)C(O)=C(C(=O)c2ccco2)C1c1ccc(OC(C)C)cc1 (centres undefined) | -15.4% | – | – |
| NC(=S)Nc1cccc2cccnc12 | -15.7% | 0.116 µM [falling, full curve, poor fit] | 0.00517 µM [falling, full curve, poor fit] |

16 compounds out of the list, ordered by count of non-hydrogen atoms, low to high:

| SMILES | cell number change | AC50 [1] | AC50 [2] |
| --- | --- | --- | --- |
| NC(=S)Nc1cccc2cccnc12 | -15.7% | 0.116 µM [falling, full curve, poor fit] | 0.00517 µM [falling, full curve, poor fit] |
| Cc1nnnn1-c1cccc(C(=O)O)c1 | -39.6% | – | 3.66 µM [falling, full curve] |
| CCNC(=S)NCc1ccc(OC)c(OC)c1 | -7.38% | 6.51 µM [rising, single point] | – |
| COCCNC(=O)CSCc1cc(C)cc(C)c1 | – | 0.731 µM [falling, single point] | – |
| COc1ccc(Nc2nccc3c2nnn3C)cc1 | 1.47% | 29.1 µM [rising, single point] | – |
| Cc1ccc(C(=O)OCC(=O)NC(=O)c2ccccc2)o1 | 17.3% | 32.6 µM [falling, single point] | – |
| O=C(CSc1nnc(COc2ccc(Cl)cc2)o1)N1CCOCC1 | -25.8% | 0.82 µM [falling, full curve] | 1.64 µM [falling, single point] |
| CCOc1cc2c(cc1OCC)C(c1ccccc1OC)OC(=O)C2 (centres undefined) | 30.2% | 0.92 µM [falling, partial curve, poor fit] | 6.51 µM [rising, partial curve] |
| CC(C)CNc1nc2c(c(=O)n(C)c(=O)n2C)n1Cc1cccc(Br)c1 | – | 2.59 µM [rising, partial curve] | 2.31 µM [rising, partial curve] |
| CCCCN(CCCNC(=O)CN1C(=O)COc2ccccc21)c1ccccc1 | 101% | – | 9.2 µM [rising, partial curve] |
| COc1cccc(/C=C2\SC(=O)N(CCC(=O)NNC(=O)c3cccc(Cl)c3)C2=O)c1 | -35.4% | 10.3 µM [falling, partial curve, poor fit] | 8.2 µM [falling, partial curve, poor fit] |
| CCN(CC)CCCN1C(=O)C(O)=C(C(=O)c2ccco2)C1c1ccc(OC(C)C)cc1 (centres undefined) | -15.4% | – | – |
| Cc1c(C(=O)Nc2ccc(F)cc2)oc2ccc(S(=O)(=O)N3CCC4(CC3)OCCO4)cc12 | -4.42% | 0.164 µM [falling, full curve] | 0.00411 µM [falling, full curve, poor fit] |
| C/C=C\C(=O)Nc1cccc(C2=NOC3(C2)C[C@@H](C(N)=O)N(C(=O)c2ccc(OC)cc2)C3)c1 (some centres undefined) | -0.0629% | 6.51 µM [falling, single point] | – |
| Cc1cccc(C(=O)OCC(=O)N(CC(C)C)c2c(N)n(Cc3ccccc3)c(=O)[nH]c2=O)c1C | – | 3.66 µM [falling, single point] | 3.26 µM [falling, partial curve, poor fit] |
| COc1ccc(NS(=O)(=O)c2cccc(C(=O)NCC(c3ccc(OC)cc3)N3CCCC3)c2)cc1 (centres undefined) | -19% | – | – |

(next part)

| SMILES | cell number change | AC50 [1] | AC50 [2] |
| --- | --- | --- | --- |
| CCOC(=O)CSc1n[nH]c(-c2cccnc2)n1 | 19.8% | – | – |
| O=C(CSc1ccc(-c2cccc([N+](=O)[O-])c2)nn1)N1CCCCC1 | -28.9% | – | 0.00461 µM [falling, full curve, poor fit] |
| CCOC(Cn1c(CCCO)nc2ccccc21)OCC | 2.5% | – | – |
| FC(F)(F)c1cnc(Sc2nc3nccc(-c4ccc(Cl)cc4)n3n2)c(Cl)c1 | 12.2% | – | – |
| O=C(CCN1CCOCC1)Nc1cc(C(=O)Nc2ccccc2F)ccc1N1CC2CC(C1)c1cccc(=O)n1C2 (centres undefined) | – | 0.411 µM [falling, single point] | 0.291 µM [falling, partial curve, poor fit] |
| COCCCn1c(CCC(=O)O)ccc1-c1cccs1 | -8.23% | 0.0651 µM [falling, full curve, poor fit] | – |
| CCOc1ccc(C)cc1S(=O)(=O)NC1CCCCC1 | 10.3% | 4.61 µM [rising, partial curve] | – |
| Cc1onc(-c2ccccc2)c1C(=O)NCc1cccnc1 | -10.5% | 0.366 µM [falling, partial curve] | – |
| CCCCC(=O)Nc1ccc(C(=O)Nc2cccnc2)cc1 | – | – | 0.651 µM [falling, single point] |
| Cc1cc(C)c(CN2CCN(C(=O)Cn3ccc(N)nc3=O)CC2)c(C)c1 | -3.13% | 0.231 µM [falling, full curve, poor fit] | – |
| CC(C)(C)c1ccc(S(=O)(=O)Nc2ccc3c(c2)COC3=O)cc1 | -48.2% | 14.6 µM [falling, partial curve, poor fit] | 11.6 µM [falling, partial curve, poor fit] |
| CCN(CC)c1ccc(/C=N/NC(=O)c2c(Cl)cnn2C)c(O)c1 | 28.8% | 6.51 µM [rising, partial curve, poor fit] | 6.51 µM [rising, partial curve, poor fit] |
| COc1cc(OC)cc(C(=O)N2CCN(C(=O)c3cccs3)CC2)c1 | -24.4% | 0.82 µM [falling, partial curve, poor fit] | 0.731 µM [falling, full curve, poor fit] |
| O=c1cc(CN2CC(O)Cc3ccc4ccccc4c32)nc2sccn12 (centres undefined) | – | 0.116 µM [rising, full curve, poor fit] | – |
| Cc1nc2c(C)cccn2c1C(=O)c1ccccc1 | -5.97% | 0.058 µM [falling, full curve, poor fit] | – |
| CC(C)Oc1ccc(CNCCC2(C(C)C)CCOC(C)(C)C2)cc1 (centres undefined) | -16.8% | 20.6 µM [rising, single point] | – |
| CCC1(CC)NC(=O)N(CC(=O)OC(C)C(=O)Nc2ccccc2OC)C1=O (centres undefined) | -23.3% | – | – |
| COc1ccc(C2CC(c3ccc(Br)cc3)=NN2C(=O)CSC2=NN3CCCC(=O)N=C3S2)cc1 (centres undefined) | 5.65% | – | – |
| C=CCn1c(=N)n(CC(=O)O)c2ccccc21 | – | 23.1 µM [falling, partial curve] | 2.06 µM [falling, partial curve, poor fit] |
